# In patent US20210107982A1:
# No constants are given. Whether binding was seen depends on the method and setting. Some binding calls cover weakened binding; strength is not graded here.
# Target: Rhesus 4-1BB (Sinobiological, Cat #90847-K08H) (Rhesus) (UniProt F6W5G6)
# Assay: ELISA, antigen coated at 25 ng/well, antibody 500 ng/mL
row,Binder,binding
1,"41BB-9-IgG2 (antibody, V domains shown) VH: QVQLVQSGAEVKKPGSSVKVSCKASGGTFSSYAISWVRQAPGQGLEWMGGIIPISGAVNYAQKFQGRVTITADESTSTAYMELSSLRSEDTAVYYCARDQFIKYYDFSSGYFPNGFDIWGKGTLVTVSS VL: QTVVTQPPSVSVSPGQTASITCSGDKLGDKYAAWYQQKPGQSPVLVIYQDTVRPSGIPERFSGSNSGNTATLTISGTQAMDEADYYCQTWVSSTGVFGTGTKVTVLG",binds
2,"41BB-2-IgG2 (antibody, V domains shown) VH: QVQLQESGGGLVQPGGSLRLSCAVSGFTFSSYAMHWVRQAPGKGLEWVAVISYDGSKKWYADSVKGRFTISRDNSKNTLYLQMNSLRAEDTAVYYCARNQGSGSYLYYYYMDVWGKGTTVTVSS VL: QSALTQPRSVSGSPGQSVTISCTGTSSDVGGYNYVSWYQQLPGKAPKVIIYEVSNRPSGVSNRFSGSKSGNTASLTISGVQSEDEADYYCSSYTSSSTFYVFGTGTQLTVLS",binds

# Next, values leading:
row,binding,Binder
1,binds,"41BB-13-IgG2 (antibody, V domains shown) VH: EVQLVETGVEVKKPGASVKVSCKASGYTFTSYYMHWVRQAPGQGLEWMGIINPSGGSTSYAQKFQGRVTMTRDTSTSTAYMELSSLRSEDTAVYYCARDLGEGYDFWSGYYTPSGAFDIWGKGTMVTVSS VL: QSALTQPASVSGSPGQSITISCTGTSSDVGGYNYVSWYQQRPGKAPKLIIYDVTTRPSGVSNRFSGSKSGTTASLTISGLQAEDEADYYCSSYTSYSTWVFGGGTKLTVLG"
2,binds,"41BB-27-IgG2 (antibody, V domains shown) VH: QVQLQESGPGPVKPSETLSLTCAVSGGSISSSHWWSWVRQPPGKGLEWIGEIYHSGRTYYNPSLKSRVTISVDTSRNQFSLKLSSVTAADTAVYYCAREDGGIMDVWGQGTLVTVSS VL: LSSELTQDPAVSVALGQTVRITCQGDSLRRFYASWYQQKPGQAPVLVIYGKNNRPSGIPDRFSASDSGNTASLTITGAQAEDEADYYCSSRDRSGYRWVFGGGTKVTVLG"
